Laboratory results from article PMC4518314.
Results are given in words; binding and its absence hold for the method and conditions named. Binding seen in cells or lysates may run through a third protein. Some results given as binding are weak or reduced against the parent protein; the word gives no strength.

Sequences of proteins named here, by UniProt entry; tags and fusion partners are left off. A change or cut given only in a name is not applied to a line headed by its entry. A line that says so, or that is headed by a name, gives the form on record, which may keep a tag or linker.
UniProt Q7Z434: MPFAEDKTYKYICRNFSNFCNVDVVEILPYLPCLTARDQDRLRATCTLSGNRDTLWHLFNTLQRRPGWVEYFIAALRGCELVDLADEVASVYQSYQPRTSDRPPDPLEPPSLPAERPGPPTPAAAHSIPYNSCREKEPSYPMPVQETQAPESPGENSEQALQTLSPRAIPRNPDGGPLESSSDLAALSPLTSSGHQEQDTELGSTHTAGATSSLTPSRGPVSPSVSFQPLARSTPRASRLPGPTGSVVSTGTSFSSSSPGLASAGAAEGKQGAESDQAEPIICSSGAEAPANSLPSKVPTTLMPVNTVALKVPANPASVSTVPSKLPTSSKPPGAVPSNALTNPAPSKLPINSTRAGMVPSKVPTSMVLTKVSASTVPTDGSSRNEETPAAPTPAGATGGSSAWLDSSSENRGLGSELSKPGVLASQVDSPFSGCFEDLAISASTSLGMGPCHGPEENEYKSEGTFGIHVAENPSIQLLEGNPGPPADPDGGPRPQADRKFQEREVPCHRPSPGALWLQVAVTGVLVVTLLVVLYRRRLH
flag-MAVS-(Region II only) (Q7Z434, form named): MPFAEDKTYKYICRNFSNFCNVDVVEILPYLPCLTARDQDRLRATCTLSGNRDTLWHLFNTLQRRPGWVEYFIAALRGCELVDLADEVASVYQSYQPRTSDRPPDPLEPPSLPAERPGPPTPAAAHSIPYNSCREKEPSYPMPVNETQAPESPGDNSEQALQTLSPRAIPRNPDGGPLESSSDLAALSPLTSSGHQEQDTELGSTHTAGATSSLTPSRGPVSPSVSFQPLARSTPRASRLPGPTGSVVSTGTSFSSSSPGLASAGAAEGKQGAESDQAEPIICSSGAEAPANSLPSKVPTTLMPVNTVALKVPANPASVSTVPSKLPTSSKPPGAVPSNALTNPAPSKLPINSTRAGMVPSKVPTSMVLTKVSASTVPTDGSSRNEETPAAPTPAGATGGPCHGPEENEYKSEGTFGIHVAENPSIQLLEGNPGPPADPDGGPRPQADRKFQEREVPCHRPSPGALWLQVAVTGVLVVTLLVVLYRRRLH
flag-MAVS-(Region III only) (Q7Z434, form named): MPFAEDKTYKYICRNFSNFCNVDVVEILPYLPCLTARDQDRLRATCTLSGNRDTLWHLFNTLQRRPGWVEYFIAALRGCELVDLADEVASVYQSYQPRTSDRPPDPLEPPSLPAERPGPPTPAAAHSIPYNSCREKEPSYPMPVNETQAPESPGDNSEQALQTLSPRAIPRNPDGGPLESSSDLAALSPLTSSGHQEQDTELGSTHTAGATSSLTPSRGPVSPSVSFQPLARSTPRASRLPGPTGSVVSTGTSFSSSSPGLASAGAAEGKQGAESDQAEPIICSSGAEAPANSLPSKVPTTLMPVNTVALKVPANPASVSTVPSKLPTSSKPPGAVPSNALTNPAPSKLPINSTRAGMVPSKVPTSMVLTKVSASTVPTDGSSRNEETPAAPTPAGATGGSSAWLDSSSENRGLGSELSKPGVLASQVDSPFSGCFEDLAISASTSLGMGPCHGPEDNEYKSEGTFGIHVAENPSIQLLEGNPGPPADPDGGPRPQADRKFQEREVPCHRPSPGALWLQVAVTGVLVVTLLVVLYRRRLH
flag-MAVS-(Region I only) (Q7Z434, form named): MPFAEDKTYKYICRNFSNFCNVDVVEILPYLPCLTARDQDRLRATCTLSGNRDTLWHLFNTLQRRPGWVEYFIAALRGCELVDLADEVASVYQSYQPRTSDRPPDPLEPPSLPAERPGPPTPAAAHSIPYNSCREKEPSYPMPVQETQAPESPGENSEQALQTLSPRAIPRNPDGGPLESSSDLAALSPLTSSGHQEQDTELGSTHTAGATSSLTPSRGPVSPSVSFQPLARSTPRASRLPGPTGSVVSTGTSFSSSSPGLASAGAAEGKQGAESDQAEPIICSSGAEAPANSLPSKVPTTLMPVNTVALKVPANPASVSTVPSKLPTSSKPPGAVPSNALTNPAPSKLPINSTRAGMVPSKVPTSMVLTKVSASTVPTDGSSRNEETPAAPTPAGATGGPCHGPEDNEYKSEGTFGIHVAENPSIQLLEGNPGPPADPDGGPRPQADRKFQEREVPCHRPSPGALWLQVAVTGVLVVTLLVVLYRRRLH
UniProt O00463: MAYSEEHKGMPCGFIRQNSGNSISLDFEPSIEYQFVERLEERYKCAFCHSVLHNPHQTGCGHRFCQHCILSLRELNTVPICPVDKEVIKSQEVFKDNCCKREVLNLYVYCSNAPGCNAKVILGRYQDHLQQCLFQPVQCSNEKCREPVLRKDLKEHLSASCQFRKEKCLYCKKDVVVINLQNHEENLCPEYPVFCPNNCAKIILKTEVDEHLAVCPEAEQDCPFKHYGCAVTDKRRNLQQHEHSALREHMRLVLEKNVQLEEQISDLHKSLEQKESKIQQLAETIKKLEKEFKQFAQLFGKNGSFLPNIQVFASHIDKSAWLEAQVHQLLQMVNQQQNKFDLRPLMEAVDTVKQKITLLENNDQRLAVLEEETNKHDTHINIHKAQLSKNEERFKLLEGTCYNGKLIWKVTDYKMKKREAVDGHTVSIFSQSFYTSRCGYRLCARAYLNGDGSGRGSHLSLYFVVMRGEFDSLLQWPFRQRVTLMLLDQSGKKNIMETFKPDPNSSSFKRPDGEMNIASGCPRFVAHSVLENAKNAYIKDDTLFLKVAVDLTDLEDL

Key:
Assay in all cases: co-IP
[1] = molecular target: flag-MAVS-(Region II only) (human) (UniProt Q7Z434)
[2] = molecular target: flag-MAVS-(Region III only) (human) (UniProt Q7Z434)
[3] = molecular target: flag-MAVS-(Region I only) (human) (UniProt Q7Z434)

Measured: binding

TRAF5 (endogenous) (from UniProt O00463 1-557)
binds: all assays above
